Data reported in paper PMC9710144.

The chains behind the UniProt entries cited, without tags or fusion partners.
UniProt O14802: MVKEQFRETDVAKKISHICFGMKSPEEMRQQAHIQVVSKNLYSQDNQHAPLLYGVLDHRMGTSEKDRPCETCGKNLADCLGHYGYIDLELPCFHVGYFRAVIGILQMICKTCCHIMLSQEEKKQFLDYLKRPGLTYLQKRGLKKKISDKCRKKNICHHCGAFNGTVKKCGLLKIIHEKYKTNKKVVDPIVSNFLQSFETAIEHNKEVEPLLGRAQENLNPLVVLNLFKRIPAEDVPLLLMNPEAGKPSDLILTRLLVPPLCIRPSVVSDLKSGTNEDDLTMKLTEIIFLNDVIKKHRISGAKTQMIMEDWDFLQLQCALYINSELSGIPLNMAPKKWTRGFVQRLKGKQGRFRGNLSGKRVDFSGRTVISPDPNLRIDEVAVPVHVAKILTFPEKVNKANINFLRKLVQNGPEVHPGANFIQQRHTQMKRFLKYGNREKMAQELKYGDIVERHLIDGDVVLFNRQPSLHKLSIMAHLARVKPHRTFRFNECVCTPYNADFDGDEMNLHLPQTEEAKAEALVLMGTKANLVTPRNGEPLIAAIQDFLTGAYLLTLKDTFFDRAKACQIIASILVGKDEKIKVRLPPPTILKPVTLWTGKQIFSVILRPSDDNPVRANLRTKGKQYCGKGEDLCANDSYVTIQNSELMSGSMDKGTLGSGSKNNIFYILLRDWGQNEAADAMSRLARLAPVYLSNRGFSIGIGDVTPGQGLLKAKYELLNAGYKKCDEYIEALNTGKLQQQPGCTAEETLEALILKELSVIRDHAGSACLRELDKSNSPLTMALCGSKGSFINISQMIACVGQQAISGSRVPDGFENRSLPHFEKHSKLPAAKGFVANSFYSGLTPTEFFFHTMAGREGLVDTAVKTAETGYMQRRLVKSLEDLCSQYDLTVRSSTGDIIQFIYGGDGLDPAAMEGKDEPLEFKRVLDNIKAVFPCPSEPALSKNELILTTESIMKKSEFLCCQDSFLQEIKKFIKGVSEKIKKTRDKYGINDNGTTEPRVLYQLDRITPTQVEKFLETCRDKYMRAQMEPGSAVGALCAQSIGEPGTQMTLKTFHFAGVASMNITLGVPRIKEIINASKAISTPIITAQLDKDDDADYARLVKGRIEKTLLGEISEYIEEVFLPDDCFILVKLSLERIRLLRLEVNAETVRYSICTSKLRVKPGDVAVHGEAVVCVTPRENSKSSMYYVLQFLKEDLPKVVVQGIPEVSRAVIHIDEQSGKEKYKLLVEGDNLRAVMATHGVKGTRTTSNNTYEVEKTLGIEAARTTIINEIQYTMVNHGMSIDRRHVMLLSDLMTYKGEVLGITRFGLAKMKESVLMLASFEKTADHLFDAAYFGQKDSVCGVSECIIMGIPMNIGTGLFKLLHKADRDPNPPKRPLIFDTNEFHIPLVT
UniProt Q9UHW5: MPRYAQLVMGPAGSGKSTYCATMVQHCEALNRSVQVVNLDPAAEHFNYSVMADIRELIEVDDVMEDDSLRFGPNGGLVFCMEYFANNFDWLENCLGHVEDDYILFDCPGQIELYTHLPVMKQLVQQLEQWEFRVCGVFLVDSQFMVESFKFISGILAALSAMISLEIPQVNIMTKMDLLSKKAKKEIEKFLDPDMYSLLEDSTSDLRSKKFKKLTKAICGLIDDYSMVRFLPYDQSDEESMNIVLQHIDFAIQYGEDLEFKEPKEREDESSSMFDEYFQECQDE
UniProt P08238: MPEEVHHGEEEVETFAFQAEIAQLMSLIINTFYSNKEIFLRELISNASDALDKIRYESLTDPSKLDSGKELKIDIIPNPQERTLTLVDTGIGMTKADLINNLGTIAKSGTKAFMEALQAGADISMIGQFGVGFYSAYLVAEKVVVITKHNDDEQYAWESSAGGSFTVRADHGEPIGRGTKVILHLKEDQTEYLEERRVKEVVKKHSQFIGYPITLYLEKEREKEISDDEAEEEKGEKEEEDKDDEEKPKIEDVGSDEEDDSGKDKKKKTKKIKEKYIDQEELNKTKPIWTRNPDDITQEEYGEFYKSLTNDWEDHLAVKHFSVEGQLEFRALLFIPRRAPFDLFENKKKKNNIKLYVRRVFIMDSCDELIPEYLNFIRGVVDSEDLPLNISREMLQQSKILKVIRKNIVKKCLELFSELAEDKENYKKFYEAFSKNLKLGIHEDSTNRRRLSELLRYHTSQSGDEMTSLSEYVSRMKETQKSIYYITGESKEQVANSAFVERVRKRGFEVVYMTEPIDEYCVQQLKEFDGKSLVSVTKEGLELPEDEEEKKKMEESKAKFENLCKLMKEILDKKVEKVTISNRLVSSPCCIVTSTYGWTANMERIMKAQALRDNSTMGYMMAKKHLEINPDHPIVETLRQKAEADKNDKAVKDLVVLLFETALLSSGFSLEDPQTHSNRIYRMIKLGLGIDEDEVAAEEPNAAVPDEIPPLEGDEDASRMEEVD
UniProt P0DMV8: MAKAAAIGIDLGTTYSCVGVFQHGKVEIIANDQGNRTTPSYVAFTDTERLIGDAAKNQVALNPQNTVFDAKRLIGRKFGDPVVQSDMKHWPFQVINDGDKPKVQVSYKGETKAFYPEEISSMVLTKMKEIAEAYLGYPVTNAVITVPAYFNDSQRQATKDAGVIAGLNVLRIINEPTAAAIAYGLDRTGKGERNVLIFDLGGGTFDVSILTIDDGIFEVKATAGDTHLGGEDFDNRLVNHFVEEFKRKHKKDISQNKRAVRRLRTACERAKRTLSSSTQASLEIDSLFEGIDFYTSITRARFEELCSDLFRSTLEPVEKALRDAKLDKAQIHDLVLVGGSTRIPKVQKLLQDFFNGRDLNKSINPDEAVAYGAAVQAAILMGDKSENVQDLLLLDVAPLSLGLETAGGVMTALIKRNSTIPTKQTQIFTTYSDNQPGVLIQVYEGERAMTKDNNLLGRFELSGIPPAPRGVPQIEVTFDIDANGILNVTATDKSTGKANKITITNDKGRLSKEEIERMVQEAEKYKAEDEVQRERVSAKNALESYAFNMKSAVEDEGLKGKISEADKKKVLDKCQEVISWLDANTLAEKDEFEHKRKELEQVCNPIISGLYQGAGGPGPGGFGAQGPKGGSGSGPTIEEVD
UniProt P11142: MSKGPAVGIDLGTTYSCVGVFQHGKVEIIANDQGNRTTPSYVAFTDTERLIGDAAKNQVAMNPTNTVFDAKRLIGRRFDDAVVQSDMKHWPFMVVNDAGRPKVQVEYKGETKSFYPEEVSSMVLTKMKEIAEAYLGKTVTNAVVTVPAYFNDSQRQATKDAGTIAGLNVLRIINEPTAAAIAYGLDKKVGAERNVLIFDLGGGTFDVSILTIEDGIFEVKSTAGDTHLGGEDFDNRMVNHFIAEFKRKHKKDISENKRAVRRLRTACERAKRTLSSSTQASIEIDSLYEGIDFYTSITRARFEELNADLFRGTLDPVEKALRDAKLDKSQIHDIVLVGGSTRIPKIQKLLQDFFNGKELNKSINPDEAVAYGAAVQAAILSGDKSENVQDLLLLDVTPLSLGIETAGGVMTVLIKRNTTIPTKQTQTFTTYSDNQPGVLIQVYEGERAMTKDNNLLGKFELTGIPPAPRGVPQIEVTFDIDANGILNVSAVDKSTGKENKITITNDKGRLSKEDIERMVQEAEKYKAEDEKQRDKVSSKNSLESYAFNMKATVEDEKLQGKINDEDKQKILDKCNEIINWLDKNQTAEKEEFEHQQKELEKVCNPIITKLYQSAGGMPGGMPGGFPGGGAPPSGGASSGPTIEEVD
UniProt O15212: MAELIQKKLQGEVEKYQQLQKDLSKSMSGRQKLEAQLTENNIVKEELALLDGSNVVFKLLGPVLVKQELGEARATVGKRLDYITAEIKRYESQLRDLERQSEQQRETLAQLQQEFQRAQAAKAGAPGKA
UniProt O15160: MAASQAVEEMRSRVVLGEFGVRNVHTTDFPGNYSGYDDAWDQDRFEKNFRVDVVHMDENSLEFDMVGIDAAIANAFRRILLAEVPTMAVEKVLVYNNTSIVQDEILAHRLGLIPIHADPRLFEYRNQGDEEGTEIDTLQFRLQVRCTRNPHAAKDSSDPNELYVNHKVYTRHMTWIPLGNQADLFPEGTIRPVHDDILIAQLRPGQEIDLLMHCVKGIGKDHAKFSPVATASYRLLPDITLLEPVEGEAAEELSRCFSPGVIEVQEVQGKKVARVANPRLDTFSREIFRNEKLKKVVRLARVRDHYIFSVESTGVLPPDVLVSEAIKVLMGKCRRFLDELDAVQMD
UniProt P0DPB6: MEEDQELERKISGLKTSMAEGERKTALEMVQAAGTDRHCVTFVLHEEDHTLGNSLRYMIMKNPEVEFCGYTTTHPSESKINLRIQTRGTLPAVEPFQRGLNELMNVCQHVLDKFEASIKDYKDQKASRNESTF
UniProt P05423: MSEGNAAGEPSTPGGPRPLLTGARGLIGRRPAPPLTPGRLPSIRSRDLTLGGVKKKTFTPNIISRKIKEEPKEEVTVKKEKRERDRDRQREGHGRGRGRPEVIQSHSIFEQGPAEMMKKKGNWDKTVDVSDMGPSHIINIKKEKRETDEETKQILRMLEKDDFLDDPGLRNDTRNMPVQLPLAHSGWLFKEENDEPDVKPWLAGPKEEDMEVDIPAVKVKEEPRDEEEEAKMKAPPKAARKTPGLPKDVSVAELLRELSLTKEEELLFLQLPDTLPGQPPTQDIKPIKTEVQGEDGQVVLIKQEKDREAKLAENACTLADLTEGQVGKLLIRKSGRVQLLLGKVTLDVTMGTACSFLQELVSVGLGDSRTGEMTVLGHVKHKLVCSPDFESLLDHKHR
UniProt Q9NVU0: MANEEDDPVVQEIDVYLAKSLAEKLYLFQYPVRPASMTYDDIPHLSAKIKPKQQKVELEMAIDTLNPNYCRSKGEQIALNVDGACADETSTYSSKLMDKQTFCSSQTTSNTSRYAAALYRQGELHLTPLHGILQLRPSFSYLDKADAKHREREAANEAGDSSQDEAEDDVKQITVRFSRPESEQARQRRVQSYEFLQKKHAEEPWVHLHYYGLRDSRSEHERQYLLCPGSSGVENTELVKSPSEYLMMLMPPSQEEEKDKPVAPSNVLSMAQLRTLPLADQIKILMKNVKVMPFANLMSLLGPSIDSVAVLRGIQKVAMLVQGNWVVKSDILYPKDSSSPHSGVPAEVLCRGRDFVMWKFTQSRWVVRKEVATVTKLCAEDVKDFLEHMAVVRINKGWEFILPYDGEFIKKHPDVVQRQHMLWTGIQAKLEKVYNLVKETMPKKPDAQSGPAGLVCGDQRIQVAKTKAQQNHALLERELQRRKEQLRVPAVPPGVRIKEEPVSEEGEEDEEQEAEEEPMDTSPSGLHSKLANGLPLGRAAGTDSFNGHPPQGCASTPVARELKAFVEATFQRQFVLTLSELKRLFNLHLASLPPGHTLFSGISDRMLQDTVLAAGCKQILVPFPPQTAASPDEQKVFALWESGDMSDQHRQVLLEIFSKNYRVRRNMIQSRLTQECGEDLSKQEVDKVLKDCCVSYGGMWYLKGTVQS
UniProt Q9Y2Y1: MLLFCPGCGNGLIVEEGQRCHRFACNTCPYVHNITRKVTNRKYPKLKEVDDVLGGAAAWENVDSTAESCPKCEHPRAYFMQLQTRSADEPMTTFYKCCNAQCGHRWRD
UniProt Q9Y265: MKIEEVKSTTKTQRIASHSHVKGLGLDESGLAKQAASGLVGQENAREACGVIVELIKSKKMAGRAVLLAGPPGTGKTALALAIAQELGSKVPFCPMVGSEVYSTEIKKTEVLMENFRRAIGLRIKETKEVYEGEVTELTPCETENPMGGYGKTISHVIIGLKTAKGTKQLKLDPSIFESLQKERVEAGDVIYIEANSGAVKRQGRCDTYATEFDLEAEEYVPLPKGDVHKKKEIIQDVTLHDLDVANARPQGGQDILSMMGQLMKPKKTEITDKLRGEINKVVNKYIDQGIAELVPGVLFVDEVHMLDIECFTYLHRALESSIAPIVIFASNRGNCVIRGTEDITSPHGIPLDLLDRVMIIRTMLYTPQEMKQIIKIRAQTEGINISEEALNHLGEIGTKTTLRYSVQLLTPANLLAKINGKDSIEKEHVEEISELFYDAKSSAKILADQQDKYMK

Key:
[1] = target: FLAG-tagged POLR3B WT (human) (UniProt Q9NW08); assay: affinity purification with mass spectrometry; FLAG-tagged POLR3B WT or R103H transiently transfected in HEK293, harvested at time points (5-24 h) after transfection, or treated with 12.5 µM riluzole or DMSO for 20 h; anti-FLAG (M2) magnetic beads with 1.5 mg cell extract, 3 h, 4 °C, lysis buffer 25 mM HEPES, 50 mM KCl, 0,05% NP-40; LC-MS/MS, LFQ, triplicate
[2] = target: T1, FLAG-tagged POLR3B R103H (human) (UniProt Q9NW08); assay: as above
T1 sequence: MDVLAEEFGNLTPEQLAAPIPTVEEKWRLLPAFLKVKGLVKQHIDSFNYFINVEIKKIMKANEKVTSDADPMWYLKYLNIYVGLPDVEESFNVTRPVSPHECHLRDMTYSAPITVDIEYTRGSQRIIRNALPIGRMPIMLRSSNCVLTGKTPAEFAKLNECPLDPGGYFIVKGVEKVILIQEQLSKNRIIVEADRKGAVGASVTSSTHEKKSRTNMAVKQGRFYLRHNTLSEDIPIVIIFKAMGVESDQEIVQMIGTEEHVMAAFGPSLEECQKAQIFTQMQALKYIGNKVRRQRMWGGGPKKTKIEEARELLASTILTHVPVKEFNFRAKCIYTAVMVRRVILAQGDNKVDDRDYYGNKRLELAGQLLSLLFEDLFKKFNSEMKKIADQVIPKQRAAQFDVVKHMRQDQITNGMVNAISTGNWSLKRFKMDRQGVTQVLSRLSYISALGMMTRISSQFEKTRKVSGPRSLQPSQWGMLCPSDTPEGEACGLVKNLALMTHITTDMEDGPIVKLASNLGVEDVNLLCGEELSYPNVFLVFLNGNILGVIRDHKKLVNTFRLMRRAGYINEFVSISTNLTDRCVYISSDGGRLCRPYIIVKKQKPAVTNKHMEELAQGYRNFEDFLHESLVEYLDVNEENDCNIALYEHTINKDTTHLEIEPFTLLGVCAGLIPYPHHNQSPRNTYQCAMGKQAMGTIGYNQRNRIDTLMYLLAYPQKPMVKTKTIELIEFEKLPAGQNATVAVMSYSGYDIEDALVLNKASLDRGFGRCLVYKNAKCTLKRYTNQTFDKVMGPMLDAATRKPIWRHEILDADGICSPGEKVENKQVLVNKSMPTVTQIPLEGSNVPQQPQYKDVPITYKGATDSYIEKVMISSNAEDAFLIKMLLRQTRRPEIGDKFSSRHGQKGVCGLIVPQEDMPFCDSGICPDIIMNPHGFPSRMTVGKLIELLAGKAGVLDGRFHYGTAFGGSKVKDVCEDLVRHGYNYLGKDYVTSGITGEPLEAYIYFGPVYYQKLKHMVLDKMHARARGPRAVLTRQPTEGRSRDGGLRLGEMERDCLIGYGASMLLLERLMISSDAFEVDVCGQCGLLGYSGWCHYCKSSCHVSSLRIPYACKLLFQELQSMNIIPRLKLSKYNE

[3] = target: FLAG-tagged POLR3A WT (human) (UniProt O14802); assay: affinity purification with mass spectrometry; FLAG-tagged POLR3A WT transiently transfected in HEK293, harvested at time points (0-12 h) after transfection; anti-FLAG (M2) magnetic beads with 1.5 mg cell extract, 3 h, 4 °C, lysis buffer 25 mM HEPES, 50 mM KCl, 0,05% NP-40; LC-MS/MS, LFQ against the FLAG control, triplicate

| binding [1] | binding [2] | binding [3] | Substance |
| --- | --- | --- | --- |
| binds |  |  | GPN3 (from UniProt Q9UHW5 1-284) |
| binds | binds |  | HSP90AA1 (from UniProt P07900 1-732) |
| binds | binds |  | HSP90AB1 (from UniProt P08238 1-724) |
| binds | binds |  | HSPA1A (from UniProt P0DMV8 1-641) |
| binds | binds |  | HSPA8 (from UniProt P11142 1-646) |
|  |  | binds | PFDN6 (from UniProt O15212 1-129) |
| binds | binds | binds | POLR1C (from UniProt O15160 1-346) |
| binds | binds |  | POLR1D (from UniProt P0DPB6 1-133) |
| binds |  |  | POLR3A (from UniProt O14802 1-1390) |
|  |  | binds | POLR3B (from UniProt Q9NW08 1-1133) |
| binds |  | binds | POLR3D (from UniProt P05423 1-398) |
| binds | binds | binds | POLR3E (from UniProt Q9NVU0 1-708) |
| binds |  |  | POLR3K (from UniProt Q9Y2Y1 1-108) |
| binds | binds |  | RUVBL1 (from UniProt Q9Y265 1-456) |

Results are given in words; binding and its absence hold for the method and conditions named. Binding seen in cells or lysates may run through a third protein. Here binding means that the protein was enriched with, or labelled near, the bait; the list need not be complete. For some of these results: Where a sequence is shown, tags or fusion partners need not be part of it.
